Measurements taken from PMC6218562.
No constants are given. Whether binding was seen depends on the method and setting. For some of these results: Binding seen in cells or lysates may run through a third protein. Some binding calls cover weakened binding; strength is not graded here.

Amino acid sequences for entries named in this document (tags omitted).
UniProt P04147: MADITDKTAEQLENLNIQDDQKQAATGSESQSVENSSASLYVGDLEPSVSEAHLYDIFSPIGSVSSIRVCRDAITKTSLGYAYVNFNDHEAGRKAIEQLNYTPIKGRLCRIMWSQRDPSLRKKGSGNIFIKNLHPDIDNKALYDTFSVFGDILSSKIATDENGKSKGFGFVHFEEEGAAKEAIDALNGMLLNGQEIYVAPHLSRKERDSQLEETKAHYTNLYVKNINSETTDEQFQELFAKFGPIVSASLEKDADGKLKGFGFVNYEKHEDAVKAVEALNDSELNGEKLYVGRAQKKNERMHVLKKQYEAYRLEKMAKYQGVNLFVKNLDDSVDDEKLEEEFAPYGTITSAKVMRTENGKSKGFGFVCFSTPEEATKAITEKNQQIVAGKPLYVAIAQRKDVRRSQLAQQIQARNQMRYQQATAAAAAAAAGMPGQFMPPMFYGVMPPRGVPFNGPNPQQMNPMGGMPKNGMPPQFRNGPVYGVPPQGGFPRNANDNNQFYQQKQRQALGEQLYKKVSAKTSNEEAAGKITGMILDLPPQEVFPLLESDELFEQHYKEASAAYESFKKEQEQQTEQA

T1: Pbp1-1Q-TAP (S. cerevisiae) (UniProt P53297)
T1 sequence: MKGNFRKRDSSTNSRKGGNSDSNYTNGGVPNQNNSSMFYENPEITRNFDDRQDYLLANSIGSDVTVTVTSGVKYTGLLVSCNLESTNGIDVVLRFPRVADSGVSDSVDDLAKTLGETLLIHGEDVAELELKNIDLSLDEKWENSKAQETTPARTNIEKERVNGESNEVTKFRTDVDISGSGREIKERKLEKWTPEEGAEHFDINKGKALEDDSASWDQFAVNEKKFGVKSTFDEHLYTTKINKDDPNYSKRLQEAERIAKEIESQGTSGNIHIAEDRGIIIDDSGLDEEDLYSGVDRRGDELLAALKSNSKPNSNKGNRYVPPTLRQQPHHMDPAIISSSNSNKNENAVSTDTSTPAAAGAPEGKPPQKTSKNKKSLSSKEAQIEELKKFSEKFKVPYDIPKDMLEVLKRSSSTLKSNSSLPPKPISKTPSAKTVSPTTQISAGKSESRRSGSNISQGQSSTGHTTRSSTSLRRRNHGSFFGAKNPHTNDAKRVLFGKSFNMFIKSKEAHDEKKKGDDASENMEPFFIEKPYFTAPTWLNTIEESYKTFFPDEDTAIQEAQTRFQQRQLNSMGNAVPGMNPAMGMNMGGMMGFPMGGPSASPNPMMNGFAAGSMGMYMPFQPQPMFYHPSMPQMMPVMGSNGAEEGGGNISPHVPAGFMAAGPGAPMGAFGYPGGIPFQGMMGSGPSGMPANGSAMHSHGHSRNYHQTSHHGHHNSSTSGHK

T2: Pbp1-1Q-TAP (S. cerevisiae), P53297
T2 chain: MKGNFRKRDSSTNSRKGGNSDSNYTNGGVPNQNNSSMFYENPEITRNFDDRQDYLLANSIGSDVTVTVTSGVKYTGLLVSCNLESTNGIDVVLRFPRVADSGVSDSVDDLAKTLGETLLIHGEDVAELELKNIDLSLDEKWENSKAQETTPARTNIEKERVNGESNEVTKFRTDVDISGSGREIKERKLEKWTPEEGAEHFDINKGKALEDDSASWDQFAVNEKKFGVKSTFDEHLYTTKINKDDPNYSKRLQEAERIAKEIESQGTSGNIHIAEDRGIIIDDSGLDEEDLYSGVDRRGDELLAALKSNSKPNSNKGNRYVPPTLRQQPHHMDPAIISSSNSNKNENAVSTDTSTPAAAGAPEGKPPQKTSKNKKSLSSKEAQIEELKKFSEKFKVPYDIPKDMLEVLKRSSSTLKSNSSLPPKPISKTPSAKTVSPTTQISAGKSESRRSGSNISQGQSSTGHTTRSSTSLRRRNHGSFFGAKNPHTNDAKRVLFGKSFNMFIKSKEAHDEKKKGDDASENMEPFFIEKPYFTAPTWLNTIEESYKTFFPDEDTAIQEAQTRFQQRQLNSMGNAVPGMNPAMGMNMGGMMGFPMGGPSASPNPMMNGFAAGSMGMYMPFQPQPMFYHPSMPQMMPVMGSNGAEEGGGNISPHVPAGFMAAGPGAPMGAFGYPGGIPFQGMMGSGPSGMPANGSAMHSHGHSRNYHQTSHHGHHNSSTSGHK


Assays:
[1] = target: T1, Pbp1-1Q-TAP (S. cerevisiae); experiment: co-IP; TAP-tagged Pbp1 forms held on IgG sepharose 6 fast-flow beads from cleared yeast lysates, 4 °C, 2 h; lysis buffer 50 mM HEPES KOH pH 7.5, 150 mM NaCl, 10% glycerol, 0.5% NP-40, 1 mM EDTA; western blot of the partners
[2] = target: T2, Pbp1-1Q-TAP (S. cerevisiae), P53297; experiment: semi-denaturing detergent agarose gel electrophoresis (SDD-AGE); cleared yeast lysates on a 1.5% agarose gel with 0.1% SDS, 4 °C, 30 V, ~18 h, then western blot; cells with Pbp1 1Q, 5Q, 15Q, 30Q or 40Q, rad27Δ, with or without Hsp104 over-expression or Trf4; conditions: remark: other sources report otherwise

binding [1]	binding [2]	Molecule
binds		Pab1 (from UniProt P04147 1-577)
binds		Pbp4 (protein, UniProt Q07362 1-185) MTTTSTTSVDGRTSSTLKATLSASGPNSNGPTPAVLPQKPKLTGWAQAAAKALPRQQQQQQQARKDDSVAVQPANTKTKTIASTAPPANIKGSSTANGSSTNKKFKRANKQPYNREEVRSYMHKLFQSYTAGEKSHSMKTYKQVLSETASGRVSTATDWGTVSSSKNKNKKYGCLSDIAKVLRNQ
binds		Lsm12 (protein, UniProt P38828 1-187) MSVSLEQTLGFRIKVTNVLDVVTEGRLYSFNSSNNTLTIQTTKKNQSPQNFKVIKCTFIKHLEVIGDKPSFNSFKKQQIKPSYVNVERVEKLLKESVIASKKKELLRGKGVSAEGQFIFDQIFKTIGDTKWVAKDIIILDDVKVQPPYKVEDIKVLHEGSNQSITLIQRIVERSWEQLEQDDGRKGG
	no binding	Pbp1-1Q-TAP, P53297 1-722 (protein) MKGNFRKRDSSTNSRKGGNSDSNYTNGGVPNQNNSSMFYENPEITRNFDDRQDYLLANSIGSDVTVTVTSGVKYTGLLVSCNLESTNGIDVVLRFPRVADSGVSDSVDDLAKTLGETLLIHGEDVAELELKNIDLSLDEKWENSKAQETTPARTNIEKERVNGESNEVTKFRTDVDISGSGREIKERKLEKWTPEEGAEHFDINKGKALEDDSASWDQFAVNEKKFGVKSTFDEHLYTTKINKDDPNYSKRLQEAERIAKEIESQGTSGNIHIAEDRGIIIDDSGLDEEDLYSGVDRRGDELLAALKSNSKPNSNKGNRYVPPTLRQQPHHMDPAIISSSNSNKNENAVSTDTSTPAAAGAPEGKPPQKTSKNKKSLSSKEAQIEELKKFSEKFKVPYDIPKDMLEVLKRSSSTLKSNSSLPPKPISKTPSAKTVSPTTQISAGKSESRRSGSNISQGQSSTGHTTRSSTSLRRRNHGSFFGAKNPHTNDAKRVLFGKSFNMFIKSKEAHDEKKKGDDASENMEPFFIEKPYFTAPTWLNTIEESYKTFFPDEDTAIQEAQTRFQQRQLNSMGNAVPGMNPAMGMNMGGMMGFPMGGPSASPNPMMNGFAAGSMGMYMPFQPQPMFYHPSMPQMMPVMGSNGAEEGGGNISPHVPAGFMAAGPGAPMGAFGYPGGIPFQGMMGSGPSGMPANGSAMHSHGHSRNYHQTSHHGHHNSSTSGHK
